From PubChem BioAssay AID2685 (National Center for Advancing Translational Sciences (NCATS), 2010)
This is one part of the list. Further columns of the screen follow, without active or inactive calls. The list favours compounds with an active or inconclusive main result. Words in brackets tell the shape of the fitted curve; partial curves, single points and poor fits give uncertain potencies.

Test: qHTS Assay for Lipid Storage Modulators in Drosophila S3 Cells;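 as to cell number change: cells counted by Cell Tracker Red CMTPX staining in the red channel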
Settings: BODIPY lipid droplet fluorescence, 18-24 h; for cell number change: measured here: cell count max response, cells fed with added oleic acid
Outline: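 Laser-scanning cytometry quantifies lipid droplet accumulation (500–530 nm total intensity; droplet/cell object ratio) in oleic acid-fed (400 uM added) Drosophila S3 cells treated with a concentration series. 20 uM Triacsin C defined 100% inhibition.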

[1] = measured here: lipid fluorescence (Fed channel) AC50, cells fed with added oleic acid
[2] = measured here: cell number channel AC50, cells fed with added oleic acid

| Compound | AC50 [1] | cell number change [%] | AC50 [2] |
| --- | --- | --- | --- |
| CCN1CCN(c2cc(C)c3cc(NC(=S)NCCCOC)ccc3n2)CC1 | 6.51 µM [rising, single point] |  |  |
| CN(C(=O)C1CCOC1)c1nnc(C2CCOC2)s1 (centres undefined) | 11.6 µM [falling, partial curve] | -9.55 |  |
| O=C(NCC(c1cccs1)N1CCOCC1)c1cccnc1 (centres undefined) |  | -0.167 |  |
| CCCCOc1ccc(C(=O)N(Cc2ccco2)C2CCS(=O)(=O)C2)cc1 (centres undefined) |  | -5.2 |  |
| CC1CN(C(=O)c2ccccc2Oc2ccccc2)CC(C)O1 (centres undefined) | 29.1 µM [falling, single point] | -60.2 | 18.4 µM [falling, single point] |
| CCCc1nn(C)c(C(=O)Nc2cccc(Cl)c2)c1Cl | 18.4 µM [falling, single point] | -33.6 | 16.4 µM [falling, single point] |
| NS(=O)(=O)c1ccc(CCNC(=O)c2cc(-c3cc(Cl)ccc3O)n[nH]2)cc1 | 4.61 µM [rising, single point] |  |  |
| Cc1ccc(C(=O)N(CC(=O)NC2CCCC2)c2cccc(F)c2)s1 |  | -3.81 | 0.082 µM [rising, full curve, poor fit] |
| COc1ccc(C(=O)COC(=O)CN2CC(=O)Oc3ccccc32)cc1Br |  | -78.4 | 16.4 µM [falling, partial curve] |
| Cc1ccccc1N1C(=O)C2C3CCC(O3)C2C1=O (centres undefined) | 8.2 µM [rising, partial curve] | 13 |  |
| CC1=C(C(N)=O)C(c2ccc(Cl)cc2)n2nc(CCCO)nc2N1 (centres undefined) |  | 52.1 | 23.1 µM [rising, single point] |
| CN(C(=S)NC(=O)Cc1ccccc1)c1ccccc1 |  | 85.7 | 16.4 µM [rising, single point] |
| COc1ccc2c(c1)Sc1ccccc1N2 | 25.9 µM [falling, single point] | -59.3 | 11.6 µM [falling, partial curve, poor fit] |
| CC1=CCC(Cc2nc3ccccc3o2)C1(C)C (centres undefined) |  | -48.6 | 32.6 µM [falling, partial curve, poor fit] |
| O=S(=O)(c1ccccc1)c1nc(-c2ccc(F)cc2)oc1NCC1CCCO1 (centres undefined) | 29.1 µM [falling, single point] | 2.9 |  |
| CCOc1c2ccccc2nn1CCOC | 0.517 µM [rising, full curve, poor fit] | 21.8 |  |
| Cn1c(CC(=O)Nc2ccccc2)n[nH]c1=S | 5.8 µM [rising, partial curve] | 36.9 | 6.51 µM [rising, full curve, poor fit] |

Reformatted: results already given.
CC1=C(C(N)=O)C(c2ccc(Cl)cc2)n2nc(CCCO)nc2N1 (centres undefined)
  cell number change [%]: 52.1; AC50 [2]: 23.1 µM [rising, single point]
CC1=CCC(Cc2nc3ccccc3o2)C1(C)C (centres undefined)
  cell number change [%]: -48.6; AC50 [2]: 32.6 µM [falling, partial curve, poor fit]
